Laboratory results reported in PubChem BioAssay AID2551 (National Center for Advancing Translational Sciences (NCATS), 2010).
Hit rate of the full screen: of about 310,000 compounds, about 17,000 (5.5%) were called active. The inconclusive results got no clear call from the source; some entries with a clear call stand among them for comparison. Calls follow the shape of the dose curve; as a rule, active = well fitted inhibition curve with a large enough effect; inconclusive = small, poorly fitted or top-dose-only effect, or effect the other way; inactive = no such curve, though single readings can be large or run the other way. Potencies beside an inconclusive call are fits to weak or partial responses and may not hold up.

The chains behind the UniProt entries cited, without tags or fusion partners. Where a name states a change or a piece, a line headed by the entry shows the natural chain unless it says otherwise.
UniProt P51450: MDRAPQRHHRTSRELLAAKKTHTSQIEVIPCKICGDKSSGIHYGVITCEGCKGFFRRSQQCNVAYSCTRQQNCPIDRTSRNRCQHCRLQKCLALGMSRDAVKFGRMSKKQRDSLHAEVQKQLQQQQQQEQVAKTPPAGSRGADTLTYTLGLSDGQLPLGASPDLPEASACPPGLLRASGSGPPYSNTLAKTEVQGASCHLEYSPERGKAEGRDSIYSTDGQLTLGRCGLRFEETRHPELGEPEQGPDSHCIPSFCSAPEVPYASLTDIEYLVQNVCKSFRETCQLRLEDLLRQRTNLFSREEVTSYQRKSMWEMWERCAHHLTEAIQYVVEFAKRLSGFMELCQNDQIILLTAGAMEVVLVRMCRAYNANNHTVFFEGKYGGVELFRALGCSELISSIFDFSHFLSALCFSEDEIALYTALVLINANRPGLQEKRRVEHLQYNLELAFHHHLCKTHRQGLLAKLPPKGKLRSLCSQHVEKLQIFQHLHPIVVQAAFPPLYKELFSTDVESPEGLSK

biological target: Nuclear receptor ROR-gamma (Mus musculus) (UniProt P51450); assay: qHTS for inhibitors of ROR gamma transcriptional activity; conditions: Drosophila S2 Gal4-RORgamma UAS-luciferase reporter, 20 h; activity change, negative = inhibition: at 53.6 µM (top of the series); also: nearly all actives have a fitted effect of over 60% in size
Outline: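 Schneider cells (Drosophila), stable Gal4 DBD–ROR gamma + UAS-luc; 1 hr cmpd preincubation; Cu2+ induction 700 uM final; 20 hr ambient; luminescence.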
% is scaled to controls: 0 for no effect and ±100 for the full control effect; potency is read from the fitted curve at half-maximal effect.

| SMILES | Potency | activity change, negative = inhibition |
| --- | --- | --- |
| N#Cc1c(-c2ccc(Cl)cc2)c2c([nH]c1=S)CCCC2 | inconclusive: 1.12 µM [inhibitor, full curve, poor fit] |  |
| O=C(Nc1cccc(Cl)c1)Nc1nnc(CC2=CCCCC2)s1 | inconclusive: 35.5 µM [inhibitor, single point] |  |
| O=c1c2ccccc2nnn1CSc1nc2ccccc2c(=O)n1Cc1ccco1 | active: 2.51 µM |  |
| Cc1ccoc1C(=O)Nc1cccc2ccccc12 | inactive |  |
| CCC(CC)N=C1NS(=O)(=O)c2cc([N+](=O)[O-])ccc21 | inconclusive: 35.5 µM [inhibitor, single point] |  |
| CCCCn1c(/N=C/c2c[nH]c3ccccc23)nc2ccccc21 | inconclusive: 35.5 µM [inhibitor, single point] |  |
| Cc1noc(C)c1CSc1nc2ccccc2nc1NS(=O)(=O)c1ccc(Cl)cc1 | inconclusive: 11.2 µM [activator, partial curve] |  |
| CCCCOCCCNC(=O)CCCOc1ccccc1 | inconclusive: 6.31 µM [inhibitor, single point] |  |
| CC(/C=N/NC(=O)c1nn(C)c(C)c1Br)=C\c1ccccc1 | active: 0.158 µM |  |
| Cc1ccc(Nc2nnc(SCC(=O)Nc3cccc(S(=O)(=O)N4CCCCC4)c3)s2)cc1 | inconclusive: 15.8 µM [activator, partial curve] |  |
| O=C(CCC1N=C2c3ccccc3N=C(SCc3ccccc3Cl)N2C1=O)NCc1ccco1 (stereo not given) | inconclusive: 17.8 µM [activator, partial curve] |  |
| Cc1ccc(NC(=S)Nc2ccc3cn[nH]c3c2)c(C)c1 | inconclusive: 17.8 µM [inhibitor, single point] |  |
| Cc1scc(C(=O)NNC(=S)NCC(C)C)c1C | active: 1.78 µM |  |
| COC(=O)c1sc(-c2ccc(C(C)(C)C)cc2)cc1NC(=O)c1ccccc1C(=O)O | inactive |  |
| O=C(Nc1ccc(Sc2ccc(Br)cc2)cc1)c1ccco1 | inconclusive: 35.5 µM [inhibitor, single point] |  |
| O=C(CCl)N(c1ccccc1)C1CCS(=O)(=O)C1 (stereo not given) | active: 17.8 µM |  |
| NS(=O)(=O)c1cccc(NS(=O)(=O)c2ccc3ccccc3c2)c1 | inconclusive: 11.2 µM [activator, single point] |  |
| O=C1NN(c2ccccc2)C(=O)/C1=C\c1ccc2c(c1)OCO2 | inconclusive: 28.2 µM [inhibitor, partial curve] |  |
| COc1ccccc1CN(C)C(=O)C(c1ccccc1)c1ccccc1 | inconclusive: 10 µM [activator, partial curve] |  |
| CC(=O)N(Cc1cccc(Br)c1)c1ccc(N2CCOCC2)c(Cl)c1 | inconclusive: 11.2 µM [activator, single point] |  |
| O=S(=O)(Nc1cccc(-c2cn3ccsc3n2)c1)c1ccc(F)cc1 | inconclusive: 22.4 µM [activator, partial curve] |  |
| COc1ccc(C(=O)NC(=S)Nc2ccccc2N2CCOCC2)cc1[N+](=O)[O-] | active: 6.31 µM |  |
| CC(=O)N1c2ccc(S(=O)(=O)N3CCC(C(=O)Nc4cccc(C)c4C)CC3)cc2CC1C (stereo not given) | inconclusive: 35.5 µM [activator, single point] |  |
| O=C(CP(=O)(c1ccccc1)c1ccccc1)Nc1nc2ccc(Cl)cc2s1 | inactive |  |

| SMILES | Potency | activity change, negative = inhibition |
| --- | --- | --- |
| CCOc1cc(/C=C2\CN(CC)C/C(=C\c3ccc(O)c(OCC)c3)C2=O)ccc1O | inconclusive: 35.5 µM [inhibitor, single point] |  |
| COc1ccc(-c2cc(C(=O)NCC3CCCO3)c3cc(C(C)C)ccc3n2)cc1 (stereo not given) | inconclusive: 35.5 µM [activator, single point] |  |
| Cc1cc(C(=O)COC(=O)c2ccc[nH]c2=O)c(C)n1-c1ccccc1 | active: 12.6 µM |  |
| CC(C)(C)OC(=O)CNC(=O)c1[nH]cnc1C(=O)NCCCCCNC(=O)OC(C)(C)C | inconclusive: 17.8 µM [inhibitor, single point] |  |
| CC1CCc2nc(NC(=O)CN3CCN(c4ccc(F)cc4)CC3)sc2C1 (stereo not given) | inconclusive: 5.01 µM [inhibitor, partial curve] |  |
| S=C(NCCc1ccccc1)NCC1CCCO1 (stereo not given) | active: 12.6 µM |  |
| COc1ccc(/C(O)=C2/C(=O)C(=O)N(CCN3CCOCC3)C2c2cccnc2)cc1OC (stereo not given) | inactive |  |
| CNc1sc(C(=O)c2ccccc2F)c(N)c1-c1nc2ccccc2s1 | active: 7.94 µM |  |
| O=C(Nc1ccc2nc(-c3ccccc3)[nH]c2c1)c1cccs1 | inconclusive: 17.8 µM [activator, single point] |  |
| O=C(NC1CC1)C1=C[C@H](c2csc3ccccc23)C[C@H](OCc2ccc(CO)cc2)O1 | inconclusive: 7.94 µM [activator, partial curve] |  |
| CC1(C)Cc2nc3oc4c(NCc5ccccc5)ncnc4c3cc2CO1 | inconclusive: 20 µM [activator, partial curve, poor fit] |  |
| O=C(COc1ccc(Cl)cc1)Nc1ccc(N2CCN(C(=O)c3ccco3)CC2)cc1 | inconclusive: 35.5 µM [activator, single point] |  |
| OC(c1ccccc1)(c1ccc(F)cc1)C(c1ccccc1)N1CCOCC1 (stereo not given) | inactive |  |
| COc1ccc(NC(=S)Nc2ccccc2)cc1 | inconclusive: 17.8 µM [inhibitor, single point] |  |
| O=C(c1cccs1)n1nc(-c2ccccc2)nc1NCc1ccco1 | inconclusive: 10 µM [activator, partial curve] |  |
| Cc1ccc(S(=O)(=O)/N=C2\C=C(Nc3cccc(C(=O)O)c3)C(=O)c3ccccc32)cc1 | active: 15.8 µM |  |
| Cc1ccc(-c2nn(-c3ccccc3)cc2CN(Cc2ccccc2)C(=O)c2ccco2)o1 | inconclusive: 22.4 µM [inhibitor, partial curve, poor fit] |  |
| COc1ccc(C(=O)NC2CCN(CC(=O)NCc3ccccc3)CC2)cc1 | inactive |  |
| COc1ccc2[nH]c(=O)c(CN(C)C(=O)c3cccs3)cc2c1 | inconclusive: 12.6 µM [activator, partial curve] |  |
| O=C(O)[C@@H](c1ccccc1)N1Cc2ccccc2C1=O | inactive |  |
| CCOC(=O)c1c(C)[nH]c(C(=O)OCC(=O)Nc2ccc(OCC)cc2)c1C | inconclusive: 0.141 µM [activator, full curve, poor fit] |  |
| O=C(NCC1CCCO1)C(=Cc1cccc([N+](=O)[O-])c1)C(=O)NCC1CCCO1 (stereo not given) | inconclusive: 35.5 µM [inhibitor, single point] |  |
| Cn1c(C(=O)NN)cc2cc(Oc3ccccc3)ccc21 | inconclusive: 15.8 µM [inhibitor, single point] |  |
| CCOc1ccc(-c2nc3ccccc3c(=O)o2)cc1 | inactive |  |

Single values from the results shown.
Value for `O=S(=O)(Nc1cccc(-c2cn3ccsc3n2)c1)c1ccc(F)cc1` under Potency: inconclusive: 22.4 µM [activator, partial curve]
Value for `COc1ccc(NC(=S)Nc2ccccc2)cc1` under Potency: inconclusive: 17.8 µM [inhibitor, single point]

Remaining list, next part

| SMILES | Potency | activity change, negative = inhibition |
| --- | --- | --- |
| O=C(NCc1cccnc1)C1CCCN(Cc2cnn(-c3ccccc3)c2-n2cccc2)C1 (stereo not given) | inactive |  |
| COc1cc(C2NC(=O)CCC2[N+](=O)[O-])c(OC)cc1Br (stereo not given) | inactive |  |
| CCc1ccc2nc(Nc3nc(COC)cc(=O)[nH]3)nc(C)c2c1 | inactive |  |
| Nc1cc(=O)[nH]c(SCCSc2ccc(F)cc2)n1 | inconclusive: 31.6 µM [activator, single point] |  |
| CCOC(=O)CC(NC(=O)c1cccc2c1C(=O)N(Cc1cccnc1)C2)c1ccc(OCC)c(OC)c1 (stereo not given) | inactive |  |
| O=C(CNCc1cccs1)Nc1cc(S(=O)(=O)N2CCCC2)ccc1Cl | inconclusive: 1.26 µM [inhibitor, full curve, poor fit] |  |
| CCOC(=O)N1CCN(C(=O)c2ccc(C#CC3(O)CCCCC3)cc2)CC1 | inactive |  |
| COc1ccc(N(CC(=O)NCc2cccs2)S(=O)(=O)c2c(C)nn(C)c2C)cc1 | inconclusive: 1.26 µM [inhibitor, full curve, poor fit] |  |
| CCC(NC(=O)Nc1nccs1)(C(F)(F)F)C(F)(F)F |  | inactive: 1.27% [at 10 µM] |
| O=C(Nc1ccc(F)cc1)N(Cc1ccco1)Cc1cc2cc3c(cc2[nH]c1=O)OCO3 | inconclusive: 10 µM [activator, partial curve] |  |
| COc1ccc2nc(SCC(=O)Nc3ccc4sc(C)nc4c3)c(C#N)cc2c1 | inconclusive: 11.2 µM [inhibitor, partial curve, poor fit] |  |
| O=C1NC(CCc2ccccc2)C(=O)N1Cc1cccc2ccccc12 (stereo not given) | inconclusive: 14.1 µM [activator, single point] |  |
| COc1ccccc1-n1cnc(N)c1C(C)=O | inactive |  |
| CC/C(=N/Nc1cccc(C)c1)c1cnnc(SC)n1 | inactive |  |
| Cc1ccc(S(=O)(=O)N(C)c2ccc(OC(=O)c3ccc(N4CCCC4=O)cc3)cc2)cc1 | inconclusive: 6.31 µM [activator, single point] |  |
| Cc1ccc2c(c1)N(CCCC(=O)NCC1COc3ccccc3O1)C(=O)CO2 (stereo not given) | inconclusive: 35.5 µM [activator, partial curve, poor fit] |  |
| CN(C)/N=C/c1c(O)ccc2ccccc12 | inactive |  |
| CCc1cc(C(=O)Cc2ccccn2)c(O)cc1O | inconclusive: 35.5 µM [activator, single point] |  |
| COc1cc(NS(=O)(=O)c2ccc(C)cc2C)cc(OC)c1OC | inconclusive: 35.5 µM [inhibitor, single point] |  |
| COC(=O)CN(C)C(=O)c1ccc(OC2CCN(S(=O)(=O)N(C)C)CC2)cc1 | inconclusive: 35.5 µM [activator, single point] |  |
| CCCc1[nH]nc2c1C(C1CC=CCC1)C(C#N)=C(N)O2 (stereo not given) | inconclusive: 20 µM [activator, partial curve] |  |
| CCC(C)NS(=O)(=O)c1ccc(NC(=O)Cc2ccc(OC)cc2)cc1 (stereo not given) | inconclusive: 15.8 µM [activator, single point] |  |

Rewritten field by field: entries from further up
CCOC(=O)CC(NC(=O)c1cccc2c1C(=O)N(Cc1cccnc1)C2)c1ccc(OCC)c(OC)c1 (stereo not given)
  Potency: inactive
O=C(CNCc1cccs1)Nc1cc(S(=O)(=O)N2CCCC2)ccc1Cl
  Potency: inconclusive: 1.26 µM [inhibitor, full curve, poor fit]
CCOC(=O)N1CCN(C(=O)c2ccc(C#CC3(O)CCCCC3)cc2)CC1
  Potency: inactive
